Values from PubChem BioAssay AID1224826 (NIAID, 2016).
Aim: 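Genes that change LPS-induced Tnf promoter activity in mouse macrophages when knocked down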 (primary screen). Cells: RAW264.7 G9 macrophages from mouse bearing reporters for p65 (GFP) and the Tnf promoter (mCherry). Knock-down reagent: siRNA pool against mouse genes, 100 nM. Timing: 16 h of LPS stimulation, after 2 days of siRNA transfection. Treatment: bacterial lipopolysaccharide (Salmonella minnesota R595), 10 ng/ml. Detection: 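Imaged Tnf reporter mCherry in nuclei, minus background, normalised per plate to the median and expressed as robust z-scores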. Scale: Tnf reporter robust z-score: higher = stronger Tnf promoter reporter signal after LPS. Call rule: 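Called active when robust z-score is at most -1.3, matching the median of the Tlr4 knock-down control, or over 3; control wells and wells with under 50 cells never active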. Meaning of the calls: active = Tnf reporter clearly lowered or raised; inactive = no clear change in Tnf reporter.
In all, the deposit lists about 17,000 reagents; below is an unselected part. About 1,110 of all reagents (6.6%) count as active. 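Active means lowered or raised reporter signal; replicate intensities are raw and not normalised per plate.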 A number with no mark means an inactive call. The numbers tell different reagents against one gene apart. Further read-outs or replicates are left out here. No sequences are given here.

Target gene | reagent no. | Tnf reporter robust z-score | fewer than 50 cells in well
Kcnab2 | 1 | -0.63 | enough cells in well
Gata1 | 1 | -0.8 | enough cells in well
Sorcs3 | 1 | -0.55 | enough cells in well
Lhx2 | 1 | -0.78 | enough cells in well
Dsg2 | 1 | -0.33 | enough cells in well
Rbp3 | 1 | 0.24 | enough cells in well
Golt1a | 1 | 1.4 | enough cells in well
Hopx | 1 | -1.09 | enough cells in well
Cldn2 | 1 | 1.03 | enough cells in well
Rab7 | 1 | 2.62 | enough cells in well
Nuf2 | 1 | – | fewer than 50 cells per well; well left out of calls

Ordered by “Tnf reporter robust z-score” (descending): 4 of the entries above
Target gene | reagent no. | Tnf reporter robust z-score | fewer than 50 cells in well
Golt1a | 1 | 1.4 | enough cells in well
Rbp3 | 1 | 0.24 | enough cells in well
Dsg2 | 1 | -0.33 | enough cells in well
Lhx2 | 1 | -0.78 | enough cells in well

Further records:
Target gene | reagent no. | Tnf reporter robust z-score | fewer than 50 cells in well
C4b | 1 | 0.83 | enough cells in well
Myadm | 1 | -1.55 (active) | enough cells in well
Ssr4 | 1 | -1.01 | enough cells in well
Ap1ar | 1 | 0.41 | enough cells in well
Adam15 | 1 | -1 | enough cells in well
Tgds | 1 | – | fewer than 50 cells per well; well left out of calls
Slc33a1 | 1 | – | fewer than 50 cells per well; well left out of calls
Tor1aip2 | 1 | 0.61 | enough cells in well
Tor1aip2 | 2 | 0.73 | enough cells in well
Abt1 | 1 | -1.04 | enough cells in well
Ccm2l | 1 | 0.63 | enough cells in well
Gpr160 | 1 | -0.92 | enough cells in well
Set | 1 | -0.19 | enough cells in well
